PubChem BioAssay AID504784, Drosophila RNAi Screening Center | 2011

- Purpose: 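Search for regulators of lipid droplet storage in oleate-fed fly cells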 (primary screen)
- Cell system: Drosophila Kc167 embryonic cells
- Reagent: long dsRNA against Drosophila genes, about 250 ng dsRNA per well
- Timing: 4 days
- Challenge: cells fed 400 µM oleic acid bound to BSA
- Detection: 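Microscope images give a droplet-to-nucleus area ratio, taken as log and converted to a screen-wide B-score; higher values mean greater lipid storage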
- Direction: droplet/nuclear area B-score: higher = more stored lipid (overstorage)
In all, the deposit lists about 17,000 reagents; shown is a random part of those with a known target gene and a result. 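Each column is one replicate's B-score; the combined score over replicates was not deposited, so single values may mislead.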 A plus sign joins genes that one reagent is predicted to hit.

| Target gene | dsRNA | droplet/nuclear area B-score, replicate 1 | droplet/nuclear area B-score, replicate 2 | droplet/nuclear area B-score, replicate 3 |
| --- | --- | --- | --- | --- |
| Glys (GeneID 41823) | DRSC16130 | 1.57 | 0.158 | – |
| ste24b (GeneID 36907) | DRSC07315 | 0.975 | 3.26 | – |
| slow (GeneID 38540) | DRSC08589 | -1.03 | 1.85 | – |
| slow (GeneID 38540) | DRSC08590 | 0.332 | -0.58 | – |
| CG4409 (GeneID 36840) | DRSC06869 | -1.55 | -0.754 | – |
| CG30037 (GeneID 246409) | DRSC07305 | 1.68 | 0.238 | – |
| CG2187 (GeneID 43743) | DRSC15425 | -1.02 | 0.411 | – |
| CG8298 (GeneID 36282) | DRSC07138 | 0.242 | 1.51 | – |
| Sp7 (GeneID 40918) | DRSC15461 | -0.691 | -1.98 | – |
| CG16903 (GeneID 31178) | DRSC18561 | -0.665 | 0.212 | – |
| CG5447 (GeneID 43192) | DRSC15801 | -0.572 | -0.195 | – |
| Sf3b2 (GeneID 33514) | DRSC00619 | -3.06 | -1.61 | – |
| JhI-21 (GeneID 34624) | DRSC02161 | 1.41 | 1.47 | – |
| LysE (GeneID 38128) | DRSC08675 | -1.36 | 2.7 | – |
| sinah (GeneID 39885) | DRSC09910 | 0.361 | 0.811 | – |
| sinah (GeneID 39885) | DRSC22181 | -0.0527 | -0.233 | – |
| tral (GeneID 39430) | DRSC09779 | 2.18 | 0.17 | – |
| CG5623 (GeneID 41904) | DRSC15848 | 0.0341 | 1.58 | – |
| CG13516 (GeneID 3885599) | DRSC04159 | -1.75 | 0.0596 | – |
| GstD11 (GeneID 41512) | DRSC15251 | 0.686 | 0.24 | – |
| Tbc1d15-17 (GeneID 33184) | DRSC00313 | 1.62 | -1.35 | – |
| HP6 (GeneID 33661) | DRSC00471 | 0.218 | 0.014 | – |
| CG10799 (GeneID 36472) | DRSC06002 | -0.726 | 1.92 | – |
| CG17032 (GeneID 39736) | DRSC10241 | -0.17 | -0.239 | – |
| CG6276 (GeneID 41855) | DRSC16007 | 0.921 | -4.81 | – |
| CG34444 (GeneID 5740745) | DRSC06435 | 1.42 | 0.034 | – |
| brv3 (GeneID 31246) | DRSC18657 | 0.205 | -0.548 | – |
| CG14459 (GeneID 40476) | DRSC11719 | -1.5 | -3.95 | – |
| CG14459 (GeneID 40476) | DRSC23039 | -0.779 | 1.05 | – |
| Muc18B (GeneID 32913) | DRSC21644 | 1.49 | -1.38 | – |
| Lsm11 (GeneID 36013) | DRSC06238 | 0.491 | -1.05 | – |
| CG17108 (GeneID 34471) | DRSC02576 | 0.0832 | 2.28 | – |
| CG17108 (GeneID 34471) | DRSC22214 | 0.384 | -1.28 | – |
| CG32243 (GeneID 317935) | DRSC08105 | -0.449 | 0.92 | – |
| superdeath (GeneID 43444) | DRSC14868 | 1.59 | -0.252 | – |
| CG14760 (GeneID 35802) | DRSC06495 | -0.736 | -1.13 | – |
| CG32628 (retired record) (GeneID 318129) | DRSC19405 | -0.0774 | 0.107 | -1.27 |
| Tsp42En (GeneID 35624) | DRSC06185 | -0.297 | 1.93 | – |
| CG8172 (GeneID 35905) | DRSC07089 | 0.895 | -0.0882 | – |
| CG8172 (GeneID 35905) | DRSC22113 | 6.52 | -0.776 | – |
| CG4325 (GeneID 31167) | DRSC18516 | -1.98 | -2.94 | – |
| CG4325 (GeneID 31167) | DRSC23171 | 1.02 | 0.953 | – |
| CG31955 (GeneID 319045) | DRSC00285 | 0.489 | -1.19 | – |
| fabp + sea | DRSC16114 | 7.94 | -0.0399 | – |
| fabp + sea | DRSC16115 | 8.05 | 7.63 | – |
| Had2 (GeneID 36624) | DRSC05971 | -1.2 | 1.39 | – |
| CG17786 (GeneID 42879) | DRSC15270 | 1.87 | 0.0822 | – |
| CG11106 (GeneID 32062) | DRSC19381 | 0.0349 | -2.39 | 0.359 |
| Spag1 (GeneID 43239) | DRSC15331 | -0.393 | -0.0579 | – |
| SerT (GeneID 37895) | DRSC04655 | 1.14 | 0.161 | – |
| GlnRS (GeneID 45786) | DRSC14140 | 1.26 | – | – |
| CG15233 (GeneID 35556) | DRSC04967 | 1.25 | 0.447 | – |
| CG4452 (GeneID 39069) | DRSC10422 | -1.63 | -0.683 | – |
| CG33128 (GeneID 326263) | DRSC00294 | 7.87 | 2.19 | -2 |
| CAH1 + Adat1 | DRSC02009 | -2.41 | 1.07 | – |
| nord (GeneID 37882) | DRSC04210 | 1.41 | -0.456 | – |
| nord (GeneID 37882) | DRSC04361 | -2.72 | -1.08 | – |
| CG30350 (GeneID 246556) | DRSC07690 | 0.518 | -0.286 | – |
| CG30056 (GeneID 246422) | DRSC21752 | -0.851 | -1.36 | – |
| b (GeneID 34791) | DRSC03487 | 0.254 | -0.0787 | – |
| out (GeneID 32926) | DRSC19347 | -1.42 | 0.115 | – |
| CG12865 (retired record) (GeneID 36633) | DRSC06205 | 0.436 | 0.776 | – |
| CG33098 (GeneID 326253) | DRSC22903 | -0.0567 | -0.144 | – |
| alpha4GT2 (GeneID 43124) | DRSC15905 | 0.861 | 2.07 | – |
| TfIIS (GeneID 34883) | DRSC03455 | 1 | -0.501 | – |
| hoe2 (GeneID 33700) | DRSC00459 | 1.76 | -0.00949 | – |
| CG33272 (GeneID 2768958) | DRSC09116 | -4.87 | -0.329 | – |
| CG9926 (GeneID 41700) | DRSC16582 | -6.11 | – | – |
| Ucp4B (GeneID 33833) | DRSC02665 | -0.14 | 0.801 | – |
| CG17186 (GeneID 42363) | DRSC15180 | -1.7 | -1.27 | – |
| CG40486 (GeneID 3355162) | DRSC20619 | 0.447 | 0.266 | – |
| Daao2 (GeneID 33955) | DRSC02135 | 0.203 | 1.95 | – |
| Amph (GeneID 36383) | DRSC07578 | 2.71 | -0.582 | – |
| alpha-Man-Ia (GeneID 31957) | DRSC17642 | 1.67 | 0.709 | – |
| alpha-Man-Ia (GeneID 31957) | DRSC18162 | -1.96 | -1.23 | -0.734 |
| alpha-Man-Ia (GeneID 31957) | DRSC18163 | -2.49 | -1.66 | -1.48 |
| alpha-Man-Ia (GeneID 31957) | DRSC18735 | 1.1 | 0.256 | 5.11 |
| alpha-Man-Ia (GeneID 31957) | DRSC23100 | -2.26 | 0.956 | – |
| ScpX (GeneID 44183) | DRSC03430 | -2.97 | -0.526 | – |
| CG14626 (GeneID 31064) | DRSC18631 | 1.06 | 1.77 | – |
| fkh (GeneID 43383) | DRSC16949 | 0.126 | -1.2 | – |
| Jon99Fii (GeneID 43621) | DRSC15430 | -0.665 | 0.805 | – |
| Slc25A46a (GeneID 32564) | DRSC20125 | -0.565 | -0.641 | -0.527 |
